This note sets out measurements from PubChem BioAssay AID248 (DTP/NCI, 2004).

In the assay the test system is L1210 leukemia ip in BDF1 mice, survival T/C. The experiment in a line: NCI In Vivo Anticancer Drug Screen. Data for tumor model L1210 Leukemia (intraperitoneal) in B6D2F1 (BDF1) mice. The following applies: T/C endpoint: mean survival time, higher T/C = longer survival.
Setting [1] is: dose: 400.0 mg/kg/injection, schedule: Q04DX003 (ip), vehicle: saline with Tween-80.
Where [2] appears, read: dose: 400.0 mg/kg/injection, schedule: Q04DX003 (ip), vehicle: Klucel (hydroxypropylcellulose) (HPC).
The mark [3] stands for this setting: dose: 400.0 mg/kg/injection, schedule: Q01DX001 (ip), vehicle: saline.
The mark [4] stands for this setting: dose: 200.0 mg/kg/injection, schedule: Q01DX001 (ip), vehicle: saline.
Setting [5] is: dose: 300.0 mg/kg/injection, schedule: Q01DX001 (ip), vehicle: saline.
Setting [6] is: dose: 100.0 mg/kg/injection, schedule: Q01DX009 (ip), vehicle: saline.
Setting [7] is: dose: 200.0 mg/kg/injection, schedule: Q04DX003 (ip), vehicle: saline.
Where [8] appears, read: dose: 400.0 mg/kg/injection, schedule: Q01DX001 (ip), vehicle: carboxymethylcellulose (CMC).
Setting [9] is: dose: 200.0 mg/kg/injection, schedule: Q01DX009 (ip), vehicle: saline with Tween-80.

The list does not hold the whole screen: it is rich in T/C values a quarter to a half above the control, in often repeated tests (any T/C) and in doses without a T/C. Other doses and runs of a compound stand elsewhere. T/C is the treated group as % of the vehicle group. Some doses have a count of surviving animals in place of a T/C: the source holds a T/C of zero for them, seemingly a mark for toxic or unscored doses. Some survivor counts are full or nearly so, which does not show that the dose was tolerated: the source hardly ever lists a survival T/C far under the control, and the zero likely stands for such cases as well. Survivors were counted at the toxicity check, usually on the fifth day, unless a day is given; later deaths do not show. Schedules are NCI's codes, taken here to give the interval after Q, in days (D) or hours (H), and the number of doses after X. Where survival is the endpoint, the PubChem record calls one and a half times the control and up active, and a quarter to a half above the control has no call in these data; cut-offs in other NCI protocols can differ.

Turning to `CC(=O)[O][Sn]([CH3])([CH3])[CH3]`, the survivor count (dose: 1.5 mg/kg/injection, schedule: Q01DX009 (ip), vehicle: Klucel (hydroxypropylcellulose) (HPC)) is listed as 0 of 6; the survivor count (dose: 3.0 mg/kg/injection, schedule: Q01DX009 (ip), vehicle: Klucel (hydroxypropylcellulose) (HPC)) is on record as 6 of 6; the survivor count (dose: 6.0 mg/kg/injection, schedule: Q01DX009 (ip), vehicle: Klucel (hydroxypropylcellulose) (HPC)) was 0 of 6; the survivor count (dose: 12.5 mg/kg/injection, schedule: Q01DX009 (ip), vehicle: Klucel (hydroxypropylcellulose) (HPC)) was 0 of 6; the survivor count (dose: 25.0 mg/kg/injection, schedule: Q01DX009 (ip), vehicle: Klucel (hydroxypropylcellulose) (HPC)) is 0 of 6; the survivor count (dose: 50.0 mg/kg/injection, schedule: Q01DX009 (ip), vehicle: Klucel (hydroxypropylcellulose) (HPC)) was 0 of 6. Further, the survivor count is, setting by setting: (dose: 75.0 mg/kg/injection, schedule: Q01DX009 (ip), vehicle: Klucel (hydroxypropylcellulose) (HPC)) 0 of 6; (dose: 150.0 mg/kg/injection, schedule: Q01DX009 (ip), vehicle: Klucel (hydroxypropylcellulose) (HPC)) 0 of 6; (dose: 300.0 mg/kg/injection, schedule: Q01DX009 (ip), vehicle: Klucel (hydroxypropylcellulose) (HPC)) 0 of 6.
Consider `O=C(Nc1cccnc1)c1ccccc1`, for which the survivor count (dose: 100.0 mg/kg/injection, schedule: Q04DX003 (ip), vehicle: saline with Tween-80) was 3 of 6; the survivor count (dose: 200.0 mg/kg/injection, schedule: Q04DX003 (ip), vehicle: saline with Tween-80) was 0 of 6; the survivor count under setting [1] is recorded as 0 of 6.
`O=C(N/N=C/c1ccc(Cl)cc1Cl)c1ccccc1`: the survivor count under setting [2] is 6 of 6.
With `Nc1ccc(Cc2ccc(N)c(Br)c2)cc1Br`, the survivor count is, setting by setting: (dose: 200.0 mg/kg/injection, schedule: Q01DX009 (ip), vehicle: saline) 5 of 6; under setting [3], 0 of 6.
Take `O=C(CBr)c1ccc(F)cc1`: the survivor count is 6 of 6 (dose: 25.0 mg/kg/injection, schedule: Q01DX015 (ip), vehicle: carboxymethylcellulose (CMC)); 6 of 6 (dose: 35.0 mg/kg/injection, schedule: Q01DX015 (ip), vehicle: carboxymethylcellulose (CMC)); 5 of 6 (dose: 50.0 mg/kg/injection, schedule: Q01DX015 (ip), vehicle: carboxymethylcellulose (CMC)); 0 of 6 (dose: 100.0 mg/kg/injection, schedule: Q01DX001 (ip), vehicle: saline); 0 of 6 under setting [4]; 0 of 6 under setting [3].
For `CS(=O)(=O)OCCCS(=O)(=O)O`, the survivor count is, setting by setting: under setting [4], 2 of 4; under setting [3], 1 of 4.
Take `COC1CCCNC1CC(=O)Cn1cnc2cc3c(cc2c1=O)OCO3` (stereo not given): the survivor count under setting [5] is given as 2 of 6.
Take `CC1=C2CCC(C)CC23C2C(=O)OC(=O)C2C1C1C(=O)OC(=O)C13` (stereo not given): the survivor count reads like this: (dose: 50.0 mg/kg/injection, schedule: Q01DX009 (ip), vehicle: saline) 3 of 6; under setting [6], 2 of 6; under setting [7], 4 of 6; under setting [3], 3 of 6.
For `Cc1ccc2c(ccc(/C=C\c3cc(C)c4cccnc4c3O)[n+]2C)c1`, the survivor count is on record as 3 of 6 (dose: 200.0 mg/kg/injection, schedule: Q01DX001 (ip), vehicle: carboxymethylcellulose (CMC)) and 0 of 6 under setting [8].
In the case of `CC1CCC2(C)CCC3(C)C4=CCC5C(C)(C)C(O)CCC5(C)C4CCC3(C)C2C1C` (stereo not given), under setting [6], the survivor count is reported as 6 of 6.
Turning to `Nc1nc(=S)c2n[nH]nc2[nH]1`, the survivor count was 1 of 6 (dose: 200.0 mg/kg/injection, schedule: Q01DX001 (ip), vehicle: saline with Tween-80) and 1 of 6 (dose: 400.0 mg/kg/injection, schedule: Q01DX001 (ip), vehicle: saline with Tween-80).
For `CC(=O)Nc1ccc(I)cc1C(=O)O`, the survivor count under setting [8] is 4 of 4.
For `CCc1cc[c]([Hg][Cl])o1`, the survivor count (dose: 50.0 mg/kg/injection, schedule: Q01DX001 (ip), vehicle: other) is recorded as 3 of 6; the survivor count (dose: 100.0 mg/kg/injection, schedule: Q01DX001 (ip), vehicle: other) is on record as 0 of 6; the survivor count (dose: 200.0 mg/kg/injection, schedule: Q01DX001 (ip), vehicle: other) is on record as 1 of 6; the survivor count (dose: 400.0 mg/kg/injection, schedule: Q01DX001 (ip), vehicle: other) is listed as 0 of 6.
For the compound `CCC12CCCN3C(=O)CC(C(=O)CC1)C32` (stereo not given), the survivor count by setting is: under setting [7], 2 of 6; (dose: 400.0 mg/kg/injection, schedule: Q04DX003 (ip), vehicle: saline) 0 of 6.
For `CCCC(C)(O)C#CC(C)(O)CCC` (stereo not given), the survivor count under setting [1] was 0 of 6.
Regarding `O=C1C(=O)c2ccccc2C(O)=C1C(C1=C(O)c2ccccc2C(=O)C1=O)c1ccc(Cl)c(Cl)c1`, the survivor count runs as follows: (dose: 150.0 mg/kg/injection, schedule: Q01DX001 (ip), vehicle: carboxymethylcellulose (CMC)) 0 of 6; (dose: 300.0 mg/kg/injection, schedule: Q01DX001 (ip), vehicle: carboxymethylcellulose (CMC)) 0 of 6.
Regarding `CC(C)CCOc1ccc(N)c([N+](=O)[O-])c1`, the survivor count is, setting by setting: (dose: 100.0 mg/kg/injection, schedule: Q01DX009 (ip), vehicle: saline with Tween-80) 0 of 6; under setting [9], 0 of 6; under setting [1], 3 of 6.
Take `O=C(OC(c1ccccc1)c1ccccc1)C(CSC(c1ccccc1)(c1ccccc1)c1ccccc1)NC(c1ccccc1)(c1ccccc1)c1ccccc1` (stereo not given): the survivor count under setting [2] is 6 of 6.
In the case of `C[N+]1(C2CCC3CCCC2C3=O)CCCC1` (stereo not given), the survivor count under setting [5] was 1 of 6.
`CN1C(=O)CCS(=O)(=O)C1c1ccc(Cl)cc1` (stereo not given): for the setting “dose: 400.0 mg/kg/injection, schedule: Q01DX009 (ip), vehicle: Klucel (hydroxypropylcellulose) (HPC)”, the survivor count was 6 of 6.
In the case of `Cc1cc2nc3c(=O)[nH]c(=O)nc-3n(CC(O)C(O)C(O)C(O)CO)c2cc1C` (stereo not given), the survivor count by setting is: (dose: 800.0 mg/kg/injection, schedule: Q01DX015 (ip), vehicle: saline) 4 of 6; (dose: 1600.0 mg/kg/injection, schedule: Q01DX001 (ip), vehicle: acetone) 0 of 6.
In the case of `COc1ccc(-c2c(COC(C)=O)c(COC(C)=O)c3n2CCC3)cc1`, the survivor count (dose: 100.0 mg/kg/injection, schedule: Q01DX009 (ip), vehicle: Klucel (hydroxypropylcellulose) (HPC)) is given as 3 of 3. Also, the T/C (dose: 200.0 mg/kg/injection, schedule: Q01DX009 (ip), vehicle: Klucel (hydroxypropylcellulose) (HPC)) is 130 % of control.
Consider `CC(C)C(NC(=O)CNC(=O)CCl)C(=O)O` (stereo not given), for which the survivor count under setting [1] was 5 of 6.
As for `NC1CCC(c2ccccc2)(c2ccccc2)C1=O` (stereo not given), under setting [5], the survivor count is 1 of 6.
For `Nc1ncnc2c1ncn2C1OC(C2CC2)C(O)C1O` (stereo not given), the survivor count (dose: 200.0 mg/kg/injection, schedule: Q01DX005 (ip), vehicle: saline) is recorded as 0 of 6.
As to `N#CC1CNC(=S)N=C1c1ccccc1` (stereo not given), under setting [2], the survivor count is 1 of 6.
Take `FC(F)(F)c1cccc(NC2=NCCS2)c1`: the survivor count is given as 2 of 3 under setting [9] and 2 of 3 (dose: 400.0 mg/kg/injection, schedule: Q04DX002 (ip), vehicle: saline with Tween-80).
As to `CCCCCCCCCCCCCCCc1ccc(C(=O)C[n+]2ccccc2)cc1`, the survivor count (dose: 37.5 mg/kg/injection, schedule: Q01DX009 (ip), vehicle: saline with Tween-80) is 4 of 6.
Consider `ClCc1cccc2c(CCl)cccc12`, for which the survivor count under setting [4] is 2 of 4 and the survivor count under setting [3] was 1 of 4.
`CCOC(=O)C1(C(C)C)OC2(O)C3CCCN3C(=O)C(C(C)C)N2C1=O` (stereo not given): the survivor count reads like this: (dose: 132.0 mg/kg/injection, schedule: Q01DX009 (ip), vehicle: Klucel (hydroxypropylcellulose) (HPC)) 4 of 6; (dose: 400.0 mg/kg/injection, schedule: Q01DX001 (ip), vehicle: Klucel (hydroxypropylcellulose) (HPC)) 3 of 6; (dose: 400.0 mg/kg/injection, schedule: Q04DX003 (ip), vehicle: alcohol) 3 of 6.
